# Measured values: the supplement of paper PMC6411743
# Sequences of proteins named here, by UniProt entry; tags and fusion partners are left off. A change or cut given only in a name is not applied to a line headed by its entry.
# UniProt Q9Y394: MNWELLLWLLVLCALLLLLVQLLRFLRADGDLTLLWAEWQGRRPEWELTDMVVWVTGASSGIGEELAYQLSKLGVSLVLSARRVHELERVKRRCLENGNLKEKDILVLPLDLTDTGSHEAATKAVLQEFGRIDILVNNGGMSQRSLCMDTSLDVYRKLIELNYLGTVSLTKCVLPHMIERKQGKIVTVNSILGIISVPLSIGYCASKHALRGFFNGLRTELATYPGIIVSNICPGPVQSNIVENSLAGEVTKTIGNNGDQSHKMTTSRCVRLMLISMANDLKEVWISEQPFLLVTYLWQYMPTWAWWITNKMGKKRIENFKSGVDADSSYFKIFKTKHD
# UniProt Q9UDT6: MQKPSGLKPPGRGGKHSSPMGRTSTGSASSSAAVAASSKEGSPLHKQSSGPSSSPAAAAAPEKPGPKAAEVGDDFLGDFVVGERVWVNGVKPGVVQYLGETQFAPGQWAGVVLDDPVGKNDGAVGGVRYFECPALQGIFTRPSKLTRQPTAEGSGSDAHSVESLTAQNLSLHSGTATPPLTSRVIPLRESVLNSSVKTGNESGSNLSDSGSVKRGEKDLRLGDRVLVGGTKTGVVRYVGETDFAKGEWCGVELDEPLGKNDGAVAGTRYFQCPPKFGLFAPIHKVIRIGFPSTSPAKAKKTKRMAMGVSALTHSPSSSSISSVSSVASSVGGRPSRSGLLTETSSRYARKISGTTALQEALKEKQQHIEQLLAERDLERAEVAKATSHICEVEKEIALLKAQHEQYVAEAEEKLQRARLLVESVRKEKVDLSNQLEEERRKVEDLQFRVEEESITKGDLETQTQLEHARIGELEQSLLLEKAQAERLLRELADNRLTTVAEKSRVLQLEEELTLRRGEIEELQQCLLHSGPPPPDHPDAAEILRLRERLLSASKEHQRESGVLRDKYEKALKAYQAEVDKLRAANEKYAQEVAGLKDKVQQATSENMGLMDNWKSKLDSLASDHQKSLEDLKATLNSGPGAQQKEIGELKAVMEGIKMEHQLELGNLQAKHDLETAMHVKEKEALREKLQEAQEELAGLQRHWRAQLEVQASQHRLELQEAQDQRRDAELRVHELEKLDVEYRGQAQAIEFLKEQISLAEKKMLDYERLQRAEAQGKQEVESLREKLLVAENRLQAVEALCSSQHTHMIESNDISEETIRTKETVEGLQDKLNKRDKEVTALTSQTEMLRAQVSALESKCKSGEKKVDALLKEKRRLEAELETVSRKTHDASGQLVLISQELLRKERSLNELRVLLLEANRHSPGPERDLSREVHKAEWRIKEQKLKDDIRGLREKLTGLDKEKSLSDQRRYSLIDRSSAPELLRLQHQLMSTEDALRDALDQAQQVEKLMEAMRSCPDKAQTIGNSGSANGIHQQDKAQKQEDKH
# UniProt Q9ULP9: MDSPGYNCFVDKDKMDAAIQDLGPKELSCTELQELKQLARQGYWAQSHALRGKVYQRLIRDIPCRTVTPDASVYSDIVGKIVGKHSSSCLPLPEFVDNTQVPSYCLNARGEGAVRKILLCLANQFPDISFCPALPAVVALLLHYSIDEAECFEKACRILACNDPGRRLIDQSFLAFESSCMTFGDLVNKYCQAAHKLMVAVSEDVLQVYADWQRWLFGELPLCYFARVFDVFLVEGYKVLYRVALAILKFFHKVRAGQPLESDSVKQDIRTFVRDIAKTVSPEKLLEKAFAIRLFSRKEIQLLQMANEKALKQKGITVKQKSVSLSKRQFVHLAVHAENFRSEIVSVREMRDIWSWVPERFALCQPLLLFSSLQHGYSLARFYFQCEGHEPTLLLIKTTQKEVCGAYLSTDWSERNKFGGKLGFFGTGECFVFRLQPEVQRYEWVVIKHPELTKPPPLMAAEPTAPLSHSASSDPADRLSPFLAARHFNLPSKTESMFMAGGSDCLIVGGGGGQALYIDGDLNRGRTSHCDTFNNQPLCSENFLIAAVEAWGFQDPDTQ
# UniProt Q9UMZ2: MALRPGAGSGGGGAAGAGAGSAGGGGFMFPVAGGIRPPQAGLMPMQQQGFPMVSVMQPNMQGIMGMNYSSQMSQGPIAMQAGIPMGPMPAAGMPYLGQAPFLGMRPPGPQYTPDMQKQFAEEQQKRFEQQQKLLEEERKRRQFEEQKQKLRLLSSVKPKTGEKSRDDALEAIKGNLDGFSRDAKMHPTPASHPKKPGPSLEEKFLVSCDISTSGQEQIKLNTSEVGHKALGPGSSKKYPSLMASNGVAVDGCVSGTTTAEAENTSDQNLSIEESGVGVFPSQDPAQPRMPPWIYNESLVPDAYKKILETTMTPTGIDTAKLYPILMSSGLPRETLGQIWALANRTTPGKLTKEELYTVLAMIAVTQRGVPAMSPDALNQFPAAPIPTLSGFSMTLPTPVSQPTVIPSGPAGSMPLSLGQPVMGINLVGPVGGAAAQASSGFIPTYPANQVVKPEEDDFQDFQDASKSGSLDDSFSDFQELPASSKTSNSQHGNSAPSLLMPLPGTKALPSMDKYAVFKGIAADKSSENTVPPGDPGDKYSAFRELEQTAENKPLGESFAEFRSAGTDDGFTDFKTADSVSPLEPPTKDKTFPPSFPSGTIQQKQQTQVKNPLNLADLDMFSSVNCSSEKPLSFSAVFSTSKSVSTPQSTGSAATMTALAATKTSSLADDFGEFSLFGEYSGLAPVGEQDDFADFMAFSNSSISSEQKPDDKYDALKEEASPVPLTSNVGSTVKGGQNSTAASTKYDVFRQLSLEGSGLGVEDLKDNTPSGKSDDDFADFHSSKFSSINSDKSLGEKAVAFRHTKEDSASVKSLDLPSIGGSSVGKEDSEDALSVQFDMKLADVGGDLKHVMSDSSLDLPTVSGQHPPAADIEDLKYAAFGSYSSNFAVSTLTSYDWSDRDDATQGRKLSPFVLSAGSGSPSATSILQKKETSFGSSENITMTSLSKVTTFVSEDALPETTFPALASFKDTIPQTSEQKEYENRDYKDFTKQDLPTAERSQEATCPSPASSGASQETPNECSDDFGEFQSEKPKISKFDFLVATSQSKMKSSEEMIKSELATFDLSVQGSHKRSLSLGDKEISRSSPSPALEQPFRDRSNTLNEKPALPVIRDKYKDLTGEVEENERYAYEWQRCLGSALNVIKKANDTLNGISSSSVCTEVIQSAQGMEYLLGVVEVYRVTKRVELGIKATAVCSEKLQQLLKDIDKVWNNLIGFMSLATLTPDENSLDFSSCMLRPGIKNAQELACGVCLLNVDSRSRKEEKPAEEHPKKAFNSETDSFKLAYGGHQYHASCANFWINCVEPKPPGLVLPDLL
# UniProt Q9UMS4: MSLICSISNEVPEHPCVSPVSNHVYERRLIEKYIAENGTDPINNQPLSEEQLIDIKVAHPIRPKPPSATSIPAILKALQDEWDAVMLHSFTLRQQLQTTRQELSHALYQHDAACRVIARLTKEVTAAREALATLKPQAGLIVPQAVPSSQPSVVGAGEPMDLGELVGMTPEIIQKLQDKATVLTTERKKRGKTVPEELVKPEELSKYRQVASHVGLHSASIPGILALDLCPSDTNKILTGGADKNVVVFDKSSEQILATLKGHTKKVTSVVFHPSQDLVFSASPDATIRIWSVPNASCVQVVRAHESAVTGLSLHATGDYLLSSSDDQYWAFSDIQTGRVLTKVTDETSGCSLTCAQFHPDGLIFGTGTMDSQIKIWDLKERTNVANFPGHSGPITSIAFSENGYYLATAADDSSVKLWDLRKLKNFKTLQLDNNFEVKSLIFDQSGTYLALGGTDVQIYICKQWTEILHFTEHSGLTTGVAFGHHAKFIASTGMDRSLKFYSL
# UniProt Q9UHP3: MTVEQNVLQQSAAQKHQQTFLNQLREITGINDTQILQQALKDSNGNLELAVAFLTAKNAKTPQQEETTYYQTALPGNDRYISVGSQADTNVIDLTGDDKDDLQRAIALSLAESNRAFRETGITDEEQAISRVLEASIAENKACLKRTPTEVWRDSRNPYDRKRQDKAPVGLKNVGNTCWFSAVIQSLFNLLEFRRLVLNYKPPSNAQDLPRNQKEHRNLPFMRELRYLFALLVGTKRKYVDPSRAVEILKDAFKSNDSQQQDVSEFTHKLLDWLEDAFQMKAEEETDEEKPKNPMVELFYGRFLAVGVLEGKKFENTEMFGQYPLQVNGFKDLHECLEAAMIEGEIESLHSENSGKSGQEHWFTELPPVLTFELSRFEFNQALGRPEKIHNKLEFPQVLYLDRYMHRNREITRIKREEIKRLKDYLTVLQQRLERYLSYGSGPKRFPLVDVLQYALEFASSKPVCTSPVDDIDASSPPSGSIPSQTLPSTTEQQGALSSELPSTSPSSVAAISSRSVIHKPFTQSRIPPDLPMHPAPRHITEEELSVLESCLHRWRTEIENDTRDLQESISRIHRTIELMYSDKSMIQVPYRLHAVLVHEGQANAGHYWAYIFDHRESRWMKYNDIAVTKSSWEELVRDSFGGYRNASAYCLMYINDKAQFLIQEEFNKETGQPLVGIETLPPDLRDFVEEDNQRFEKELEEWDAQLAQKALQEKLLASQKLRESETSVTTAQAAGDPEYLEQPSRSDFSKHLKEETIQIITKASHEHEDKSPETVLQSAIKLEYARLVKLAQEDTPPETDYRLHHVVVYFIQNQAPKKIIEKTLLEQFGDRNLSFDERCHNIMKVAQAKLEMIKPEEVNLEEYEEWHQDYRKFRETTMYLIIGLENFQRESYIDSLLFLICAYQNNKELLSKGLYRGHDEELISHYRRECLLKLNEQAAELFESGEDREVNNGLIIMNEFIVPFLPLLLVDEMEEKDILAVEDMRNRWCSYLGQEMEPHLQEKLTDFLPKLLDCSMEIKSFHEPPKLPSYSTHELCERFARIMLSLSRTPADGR
# UniProt Q9ULR0: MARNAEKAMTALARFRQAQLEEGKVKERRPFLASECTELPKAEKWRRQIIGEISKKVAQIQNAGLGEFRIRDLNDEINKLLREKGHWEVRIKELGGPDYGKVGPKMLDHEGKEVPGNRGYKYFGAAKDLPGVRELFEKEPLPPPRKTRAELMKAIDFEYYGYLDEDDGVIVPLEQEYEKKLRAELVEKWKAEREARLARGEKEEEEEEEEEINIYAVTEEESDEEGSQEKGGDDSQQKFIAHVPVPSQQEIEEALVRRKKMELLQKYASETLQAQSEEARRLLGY
# UniProt Q9UIG0: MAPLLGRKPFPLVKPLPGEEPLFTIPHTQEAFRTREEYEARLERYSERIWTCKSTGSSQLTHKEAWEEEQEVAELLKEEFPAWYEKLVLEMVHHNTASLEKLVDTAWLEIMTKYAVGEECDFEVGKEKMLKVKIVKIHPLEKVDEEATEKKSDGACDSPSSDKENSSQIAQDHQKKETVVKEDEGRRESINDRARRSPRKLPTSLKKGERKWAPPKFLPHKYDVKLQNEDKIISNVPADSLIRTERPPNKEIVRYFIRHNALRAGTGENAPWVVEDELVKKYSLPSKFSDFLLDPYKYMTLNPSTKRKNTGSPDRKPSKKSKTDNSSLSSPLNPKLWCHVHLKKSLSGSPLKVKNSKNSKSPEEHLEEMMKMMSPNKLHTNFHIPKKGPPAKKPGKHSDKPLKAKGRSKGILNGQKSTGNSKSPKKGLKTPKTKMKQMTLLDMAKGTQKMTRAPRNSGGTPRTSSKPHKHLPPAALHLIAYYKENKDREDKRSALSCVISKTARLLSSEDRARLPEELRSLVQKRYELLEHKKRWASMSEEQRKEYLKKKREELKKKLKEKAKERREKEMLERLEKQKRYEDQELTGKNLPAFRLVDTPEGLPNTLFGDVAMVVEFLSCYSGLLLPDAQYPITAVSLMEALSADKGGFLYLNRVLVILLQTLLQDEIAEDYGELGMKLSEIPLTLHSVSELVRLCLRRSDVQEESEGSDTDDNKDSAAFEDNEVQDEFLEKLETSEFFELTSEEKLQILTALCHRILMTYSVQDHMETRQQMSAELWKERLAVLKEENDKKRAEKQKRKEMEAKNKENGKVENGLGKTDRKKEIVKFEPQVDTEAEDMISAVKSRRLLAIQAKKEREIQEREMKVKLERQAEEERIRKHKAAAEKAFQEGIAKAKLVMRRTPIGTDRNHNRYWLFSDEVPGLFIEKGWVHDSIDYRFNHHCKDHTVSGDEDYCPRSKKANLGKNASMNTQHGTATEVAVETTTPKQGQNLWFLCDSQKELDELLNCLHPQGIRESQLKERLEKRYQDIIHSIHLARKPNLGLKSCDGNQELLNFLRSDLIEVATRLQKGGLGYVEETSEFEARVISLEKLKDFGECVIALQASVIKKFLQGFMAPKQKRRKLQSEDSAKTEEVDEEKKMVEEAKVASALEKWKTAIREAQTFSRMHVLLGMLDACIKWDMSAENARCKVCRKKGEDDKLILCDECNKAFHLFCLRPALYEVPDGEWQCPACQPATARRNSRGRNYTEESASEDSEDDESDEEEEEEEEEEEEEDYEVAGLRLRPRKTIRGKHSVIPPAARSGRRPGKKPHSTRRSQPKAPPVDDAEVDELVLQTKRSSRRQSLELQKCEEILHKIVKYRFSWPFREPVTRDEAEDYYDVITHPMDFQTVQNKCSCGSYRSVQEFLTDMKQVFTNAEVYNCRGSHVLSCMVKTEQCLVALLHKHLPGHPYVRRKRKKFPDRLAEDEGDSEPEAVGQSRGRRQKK
# ± gives the standard deviation of the averaged measurements. The entries are a selection whose mix differs from that of the whole data set. Most values lie at the level of the controls, where differences are scatter.
# Compound: Nc1ncnc2c1ncn2[C@@H]1O[C@H](COP(=O)(O)OP(=O)(O)NP(=O)(O)O)[C@@H](O)[C@H]1O [adenylyl imidodiphosphate]
# Assay: NP40-soluble protein abundance relative to vehicle (solubility fold change) (ratio); higher = more soluble protein in presence of AMP-PNP
# Settings: concentration: 0.1mM
# Procedure, shortened: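 Crude Jurkat lysate, prepared by Dounce homogenisation, was exposed to eight concentrations from 0.1 to 10 mM for 10 min at room temperature and then 3 min at 37 °C. Solubilisation used 0.8% NP40 with benzonase for 60 min at 4 °C, followed by ultracentrifugation and TMT labelling of the supernatant for LC-MS/MS. After vsn normalisation of intensities, each value is the fold change against the detergent-processed vehicle within each replicate, across three independent experiments.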
row,Target,NP40-soluble protein abundance
1,UniProt Q9Y394 and related entries,0.96 ± 0.045
2,XPO7 (UniProt Q9UIA9),1 ± 0.037
3,UniProt Q9UDT6 and related entries,1.02 ± 0.037
4,SRRM2 (UniProt Q9UQ35),1.02 ± 0.033
5,UniProt Q9UP95 and related entries,0.99 ± 0.011
6,UniProt Q9ULP9 and related entries,0.984 ± 0.017
7,UniProt Q9UBU8 and related entries,1.04 ± 0.02
8,UniProt Q9UBS9-2|Q9UBS9,0.9712 ± 0.0051
9,SMC3 (UniProt Q9UQE7),1 ± 0.028
10,UniProt Q9UKL6 and related entries,0.992 ± 0.015
11,UniProt Q9UMZ2 and related entries,0.987 ± 0.026
12,UniProt Q9Y3C4 and related entries,1 ± 0.075
13,PRPF19 (UniProt Q9UMS4),1.04 ± 0.022
14,UniProt Q9UHP3 and related entries,0.974 ± 0.045
15,RCL1 (UniProt Q9Y2P8),1.04 ± 0.026
16,UniProt Q9ULR0 and related entries,0.985 ± 0.013
17,UniProt Q9UH03 and related entries,0.974 ± 0.027
18,LNPEP (UniProt Q9UIQ6),1.01 ± 0.017
19,DIS3 (UniProt Q9Y2L1),1 ± 0.033
20,UniProt Q9UIG0 and related entries,1.03 ± 0.039
21,UniProt Q9UKM9 and related entries,1.01 ± 0.053
22,MSRB2 (UniProt Q9Y3D2),0.99 ± 0.034
23,UniProt Q9ULH0 and related entries,1.02 ± 0.021
24,UniProt Q9UKX7 and related entries,1 ± 0.012
25,UniProt Q9Y2H0 and related entries,0.978 ± 0.026

# Excerpt: entries 23–24
row,Target,NP40-soluble protein abundance
23,UniProt Q9ULH0 and related entries,1.02 ± 0.021
24,UniProt Q9UKX7 and related entries,1 ± 0.012
